Literature values as cited in US4470980A, “Method of increasing oral absorption of β-lactam antibiotics” (priority 1981, dated 1984).

Details: oral; prior art; cited from earlier work

Question: For `CC1=C(C(=O)O)N2C(=O)[C@@H](NC(=O)[C@H](N)c3ccccc3)[C@H]2SC1` [cephalexin], which absorbed is on record?
Answer: greater than 80%
